Assay results from PubChem BioAssay AID504848 (National Center for Advancing Translational Sciences (NCATS), 2011).
In all, about 2,300 compounds went through this assay and about 1,400 (61%) were called active. The set was probably picked from earlier hits. The inconclusive results got no clear call from the source; some entries with a clear call stand among them for comparison. Calls follow the shape of the dose curve; as a rule, active = well fitted inhibition curve with a large enough effect; inconclusive = small, poorly fitted or top-dose-only effect, or effect the other way; inactive = no such curve, though single readings can be large or run the other way. Where the call is inconclusive, the potency comes from a doubtful curve fit.

test: Confirmation screen for delayed death inhibitors of the malarial parasite plastid, 96 hour incubation; also: nearly all actives have a fitted effect of over 60% in size; conditions: P. falciparum luciferase growth in erythrocytes; series mostly up to 28.7 µM
Outline: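 Erythrocytes infected with luciferase-expressing P. falciparum (2% hematocrit, 0.1% parasitemia final) in RPMI 1640 with 0.5% Albumax, exposed to compounds 96 h at 37 C, 5% CO2. Growth inhibition read as decreased luciferase luminescence.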
Potency is read from the fitted curve at half-maximal effect.

Row | Structure (SMILES) | Potency
1 | O=c1[nH]c(NCc2ccccc2)nc2c1CCC2 | inconclusive: 11.2 µM [inhibitor, partial curve, poor fit]
2 | CCCc1c(NC(=O)Nc2ccc(Cl)cc2Cl)cnn1-c1ccccc1 | inconclusive: 15.8 µM [inhibitor, single point]
3 | CCCCNC(=O)c1onc(CSc2ccccc2C)c1C(=O)O | inactive
4 | C=CCNC(=O)CSc1nc2sc3c(c2c(=O)n1CCCOC)CCC3 | inconclusive: 0.631 µM [inhibitor, full curve, poor fit]
5 | CCOC(=O)C(=Cc1ccc(-n2cncn2)cc1)C(=O)OCC | inconclusive: 15.8 µM [inhibitor, single point]
6 | N#Cc1cc(S(=O)(=O)c2ccccc2)c(N)[nH]c1=O | inactive
7 | CC(C)N(C(=O)CSc1nnc(-c2ccc3c(c2)OCO3)n1C)C(C)C | active: 10 µM
8 | CC(C)CCSc1nc(N)c(C#N)cc1C#N | active: 5.62 µM
9 | Cc1ccc(NC(=O)CSc2nc3ccccc3c(=O)n2CCCN2CCCCC2)cc1Cl | active: 6.31 µM
10 | COc1ccc2cc3[n+](cc2c1OC)CCc1cc2c(cc1-3)OCO2 | active: 0.501 µM
11 | COC(=O)C(=Cc1ccccc1[N+](=O)[O-])C(=O)OC | active: 3.98 µM
12 | Cc1cc2c(c(=O)n1Cc1ccco1)C(c1cccnc1)C(C#N)=C(N)O2 (stereo not given) | inconclusive: 11.2 µM [inhibitor, partial curve]
13 | Oc1ccc(Cl)cc1CNc1cnc2ccccc2c1 | active: 11.2 µM
14 | Cc1cc(=O)oc2cc(OCCc3ccccc3)ccc12 | inconclusive: 10 µM [activator, partial curve]
15 | CC(C)[C@H](NC(=O)N1CCn2c1nc1ccccc12)C(=O)N[C@H](C(=O)O)c1ccccc1 | inactive
16 | Cc1ccc(Nc2nc(N)c([N+](=O)[O-])c(NCc3ccco3)n2)cc1 | inconclusive: 6.31 µM [inhibitor, full curve, poor fit]
17 | CC[N+]1(CC)CC2CCC(C)(C1)C2(C)C (stereo not given) | inconclusive: 10 µM [inhibitor, partial curve, poor fit]
18 | CCN(C(C)=O)c1nnc(CSc2nc3ccccc3s2)s1 | inconclusive: 1.58 µM [activator, full curve]
19 | CCOc1ccccc1NC(=O)C(C)SCc1ccccc1 (stereo not given) | inconclusive: 14.1 µM [inhibitor, single point]
20 | Cc1ccc(NC(=O)CN(C)C(=O)c2cccc(S(=O)(=O)NCc3ccco3)c2)cc1 | inconclusive: 2.51 µM [inhibitor, partial curve]
21 | O=C(CN1CCN(CCC(=O)Nc2ccccc2F)CC1)Nc1ccc(Cl)cc1 | inconclusive: 2.82 µM [inhibitor, partial curve]
22 | COCCNC(=O)c1cccc(OC2CCN(Cc3ccc(C(C)C)cc3)CC2)c1 | active: 11.2 µM
23 | CCc1ccc(NC(=O)CSc2nc3n[nH]c(C)c3c(=N)n2-c2cccc(OC)c2)cc1 | inconclusive: 0.398 µM [inhibitor, full curve, poor fit]
24 | Cc1c(F)c(N2CCNC(C)C2)cc2c1c(=O)c(C(=O)O)cn2C1CC1 (stereo not given) | inconclusive: 15.8 µM [inhibitor, single point]

Row | Structure (SMILES) | Potency
25 | COc1cccc(OC)c1C(=O)OCC(=O)NC1CCCCCC1 | inconclusive: 14.1 µM [inhibitor, partial curve, poor fit]
26 | CCOC(=O)c1c(CS(=O)(=O)c2ccccc2)n(C)c2cc(Br)c(O)cc12 | inconclusive: 0.158 µM [inhibitor, full curve, poor fit]
27 | Nc1nc(C2CC2)c(Sc2sc(N)nc2C2CC2)s1 | inactive
28 | COc1cccc(NC(=O)[C@H](Cc2c[nH]c3ccccc23)NC(=O)[C@@H]2Cc3ccccc3CN2)c1 | active: 12.6 µM
29 | COc1ccc(C(=O)/C=C/c2ccccc2)c(OC)c1 | active: 7.94 µM
30 | CCOc1ccc(NC(=O)CC2C(=O)N(c3ccccc3)C(=O)N2CCOC)cc1 (stereo not given) | inactive
31 | Cc1c(C(=O)N2CCC(C)CC2)oc2ccc3c(c12)C(O)CC1(CCCCC1)O3 (stereo not given) | inconclusive: 15.8 µM [inhibitor, single point]
32 | O=C(COc1cccc2ccccc12)Nc1ccc(Cl)cc1C(=O)O | inactive
33 | CC1CCCCN1C(=O)COC(=O)c1cccc(NS(=O)(=O)c2ccccc2)c1 (stereo not given) | inactive
34 | CN1CCN(C(=O)CCN2C(=O)/C(=C\c3ccc(Cl)cc3)SC2=S)CC1 | inconclusive: 5.62 µM [inhibitor, partial curve]
35 | Cc1cc(C)c(C(=O)NC2CCCc3c2cnn3-c2cccc(C)c2C)o1 (stereo not given) | inconclusive: 12.6 µM [inhibitor, partial curve, poor fit]
36 | Cc1cccc(-c2c(NC(=O)c3ccco3)oc3ccc(Cl)cc3c2=O)c1 | inactive
37 | O=C(Nc1ccccc1C(=O)Nc1ccccc1C(=O)O)c1ccccc1 | inconclusive: 12.6 µM [inhibitor, partial curve, poor fit]
38 | CC(=O)c1ccc(NC(=O)C2Cc3ccccc3CN2C(=O)c2ccccc2)cc1 (stereo not given) | inconclusive: 14.1 µM [inhibitor, single point]
39 | COC(=O)c1ccc(COc2ccccc2/C=N/O)o1 | inconclusive: 5.01 µM [inhibitor, partial curve, poor fit]
40 | Cn1nc(-c2ccccc2)c(CN2CCN(c3ncccn3)CC2)c1Cl | inconclusive: 0.316 µM [inhibitor, full curve, poor fit]
41 | O=C(Nc1ccc2ccccc2c1)c1ccc(Br)o1 | inconclusive: 3.16 µM [activator, partial curve]
42 | COc1ccccc1-c1coc2cc(OC(=O)N3CCOCC3)ccc2c1=O | inactive
43 | Cc1onc(-c2c(F)cccc2Cl)c1C(=O)N1CCCCC1 | inconclusive: 6.31 µM [inhibitor, partial curve, poor fit]
44 | COc1ccccc1NC(=S)NCc1cccs1 | inactive
45 | CC(C)NC(=O)c1onc(CSc2cccc(F)c2)c1C(=O)O | inactive
46 | CCCCCCCCCC[n+]1cccc2c3ccccc3ccc21 | inconclusive: 0.251 µM [inhibitor, full curve, poor fit]
47 | CCc1ccc(Nc2nc(N3CCOCC3)nc(N3CCOCC3)n2)cc1 | inconclusive: 12.6 µM [inhibitor, partial curve]
48 | c1ccc(SCc2cn(C[C@H]3CC[C@@H]([C@@H]4CC[C@H](Cn5cc(CSc6ccccc6)nn5)O4)O3)nn2)cc1 | active: 11.2 µM

From compound 27 to 41, copied from above:
Row | Structure (SMILES) | Potency
27 | Nc1nc(C2CC2)c(Sc2sc(N)nc2C2CC2)s1 | inactive
28 | COc1cccc(NC(=O)[C@H](Cc2c[nH]c3ccccc23)NC(=O)[C@@H]2Cc3ccccc3CN2)c1 | active: 12.6 µM
29 | COc1ccc(C(=O)/C=C/c2ccccc2)c(OC)c1 | active: 7.94 µM
30 | CCOc1ccc(NC(=O)CC2C(=O)N(c3ccccc3)C(=O)N2CCOC)cc1 (stereo not given) | inactive
31 | Cc1c(C(=O)N2CCC(C)CC2)oc2ccc3c(c12)C(O)CC1(CCCCC1)O3 (stereo not given) | inconclusive: 15.8 µM [inhibitor, single point]
32 | O=C(COc1cccc2ccccc12)Nc1ccc(Cl)cc1C(=O)O | inactive
33 | CC1CCCCN1C(=O)COC(=O)c1cccc(NS(=O)(=O)c2ccccc2)c1 (stereo not given) | inactive
34 | CN1CCN(C(=O)CCN2C(=O)/C(=C\c3ccc(Cl)cc3)SC2=S)CC1 | inconclusive: 5.62 µM [inhibitor, partial curve]
35 | Cc1cc(C)c(C(=O)NC2CCCc3c2cnn3-c2cccc(C)c2C)o1 (stereo not given) | inconclusive: 12.6 µM [inhibitor, partial curve, poor fit]
36 | Cc1cccc(-c2c(NC(=O)c3ccco3)oc3ccc(Cl)cc3c2=O)c1 | inactive
37 | O=C(Nc1ccccc1C(=O)Nc1ccccc1C(=O)O)c1ccccc1 | inconclusive: 12.6 µM [inhibitor, partial curve, poor fit]
38 | CC(=O)c1ccc(NC(=O)C2Cc3ccccc3CN2C(=O)c2ccccc2)cc1 (stereo not given) | inconclusive: 14.1 µM [inhibitor, single point]
39 | COC(=O)c1ccc(COc2ccccc2/C=N/O)o1 | inconclusive: 5.01 µM [inhibitor, partial curve, poor fit]
40 | Cn1nc(-c2ccccc2)c(CN2CCN(c3ncccn3)CC2)c1Cl | inconclusive: 0.316 µM [inhibitor, full curve, poor fit]
41 | O=C(Nc1ccc2ccccc2c1)c1ccc(Br)o1 | inconclusive: 3.16 µM [activator, partial curve]

(next part)

Row | Structure (SMILES) | Potency
49 | Cc1ccc(/C(C#N)=C\c2ccc(N3CCOCC3)o2)cc1 | inconclusive: 3.98 µM [activator, partial curve]
50 | COc1ccc(C2(CCN)CC(C)N(C)CC2C)cc1 (stereo not given) | active: 15.8 µM
51 | NC(=O)c1cc2c3ccccc3ccn2c1-c1ccccc1 | inconclusive: 17.8 µM [inhibitor, single point]
52 | Cc1ccc(CSCC(=O)Nc2ccccc2C(=O)O)cc1 | inconclusive: 15.8 µM [activator, partial curve]
53 | O=C(CSc1nnc(-c2ccccc2Cl)o1)N1CCCC1 | inconclusive: 3.16 µM [activator, partial curve]
54 | CCn1c(CNc2ccc(F)cc2)nnc1SCC(=O)Nc1ccc(OC)cc1OC | inconclusive: 11.2 µM [inhibitor, partial curve]
55 | COc1cccc2sc(Nc3nnc(-c4ccccc4Cl)o3)nc12 | inactive
56 | O=C(Nc1ccccc1)c1cccc(S(=O)(=O)NCc2ccco2)c1 | inconclusive: 1.58 µM [inhibitor, partial curve, poor fit]
57 | CCCNC(=O)c1nnsc1S(=O)(=O)c1ccc(Cl)cc1 | inactive
58 | COc1ccc(S(=O)(=O)N(C)c2ccc(C(=O)Nc3cccnc3)cc2)cc1OC | inconclusive: 10 µM [inhibitor, partial curve, poor fit]
59 | COc1cccc(N/C(SCc2cccc([N+](=O)[O-])c2)=C(/C#N)C(N)=O)c1 | inconclusive: 12.6 µM [inhibitor, single point]
60 | Cc1ccsc1/C=N/n1c(=S)[nH]nc(C)c1=O | inconclusive: 12.6 µM [inhibitor, partial curve]
61 | COc1cccc(C2=CC(=O)C[C@H](c3ccc(F)cc3)C2)c1OC | inconclusive: 3.16 µM [inhibitor, partial curve, poor fit]
62 | COc1ccc(C(c2c(C)n(C)n(-c3ccccc3)c2=O)c2c(C)n(C)n(-c3ccccc3)c2=O)cc1 | inconclusive: 17.8 µM [inhibitor, partial curve, poor fit]
63 | COc1cc2c(cc1OC)[C@@H](NC(=O)C(C)C)[C@H](OCc1ccccc1)C2 | inactive
64 | O=c1c2ccccc2[nH]c(=S)n1CCCN1CCN(c2ccccc2)CC1 | inconclusive: 14.1 µM [inhibitor, single point]
65 | Cc1c(C(=O)N2CCN(c3ccc([N+](=O)[O-])cc3)CC2)sc2ncn(CC(=O)N3CCOCC3)c(=O)c12 | inconclusive: 12.6 µM [inhibitor, partial curve]
66 | O=C(NCc1ccccc1)c1c[nH]c2ccccc2c1=O | inconclusive: 17.8 µM [inhibitor, partial curve, poor fit]
67 | Cc1nn(Cc2c(Cl)cccc2Cl)c(C)c1NC(=O)c1cc(C(C)C)on1 | inactive
68 | Cc1cc(C)cc(NC(=O)c2cccnc2)c1 | inconclusive: 28.2 µM [inhibitor, partial curve, poor fit]
69 | COc1ccccc1CNC(=O)CN1C(=O)NC(c2ccccc2)(c2ccc(C)c(C)c2)C1=O (stereo not given) | active: 12.6 µM
70 | CCCCN(C)C(=O)C1CCC(CNS(=O)(=O)c2ccc3c(c2)CC(C)N3C(=O)C2CC2)CC1 (stereo not given) | active: 5.62 µM
